Laboratory results reported in PubChem BioAssay AID624297 (National Center for Advancing Translational Sciences (NCATS), 2012).
Among all 340,000 compounds or so, about 6,200 (1.8%) were called active. The inconclusive results got no clear call from the source; some entries with a clear call stand among them for comparison. Calls come from the whole dose curve; as a rule, active = well fitted activation curve with a large enough effect; inconclusive = small, poorly fitted or top-dose-only effect; inactive = no such curve, though single readings can be large or run the other way. A potency beside an inconclusive call is a rough fit, not a confirmed value.

Experiment: A quantitative high throughput screen for small molecules that induce DNA re-replication in SW480 colon adenocarcinoma cells. For re-replication activation: % of control where 0% means no effect. Note: nearly all actives have a fitted effect of over 55% in size.
Conditions: Hoechst DNA content imaging, 48 h; re-replication activation: at 46.1 µM (top of the series) unless noted
Method in brief: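 First, 250 cells per well were seeded. Next, compound or vehicle (23 nL) was pinned in, plates sat 48 hr at 37 C. Finally Hoechst was added for 40 min before fluorescence scanning.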
Potency is the fitted concentration of half-maximal effect.

| Compound | Potency | re-replication activation |
| --- | --- | --- |
| CC1CCCCC1NC(=O)COC(=O)c1ccccc1NC(=O)c1ccco1 (stereo unspecified) | inactive | – |
| COc1ccc(NC(=O)C2=CC(c3ccc(C)cc3)=NS(=O)(=O)N2C)cc1 | inactive | – |
| O=C(N/N=C\c1cn[nH]c1-c1ccccc1)c1cccs1 | inconclusive: 0.82 µM [activator, full curve, poor fit] | – |
| COc1ccc(S(=O)(=O)N2CCOCC2)cc1NC(=O)CCc1c[nH]c2ccccc12 | inconclusive: 15.8 µM [activator, single point] | – |
| CC(=O)Nc1sc2c(c1CN1CCN(c3ccc(F)cc3)CC1)CCCC2 | inconclusive: 25.1 µM [activator, partial curve, poor fit] | – |
| Cc1cc(CN2CCC(N3CCC(C(=O)NC4CC4)CC3)CC2)cc(C)c1O | inactive | – |
| CCc1ccc(/C=N/NC(=O)c2cc(-c3ccccc3OC)nc3ccccc23)s1 | – | inactive: 0.916% [at 9.22 µM] |
| O=S1c2ccccc2Sc2ccccc21 | inactive | – |
| Cn1ccsc1=NC(=O)c1ccc(S(C)(=O)=O)c([N+](=O)[O-])c1 | active: 16.4 µM | – |
| COc1ccc(NC(=O)CCc2nnc3ccc(NCc4ccco4)nn23)cc1OC | inconclusive: 1.3 µM [activator, partial curve, poor fit] | – |
| O=C(COC(=O)CNC(=O)c1ccccc1Cl)Nc1ccccc1Cl | – | inactive: -10.6% [at 9.22 µM] |
| COC(=O)c1ccc(NC(=O)CSc2nnc(C3CC3)n2C)cc1 | inconclusive: 4.11 µM [activator, full curve, poor fit] | – |
| CCOc1ccc(CN(C)C(=O)CNC(=O)C2CCCCC2)cc1 | inconclusive: 29.1 µM [activator, single point] | – |
| O=C(Nc1c(Cl)cc(Cl)cc1-c1nc2ccccc2s1)c1ccc(Br)o1 | inconclusive: 20.6 µM [activator, single point] | – |
| COc1ccccc1NC(=S)N(Cc1ccccc1)Cc1cccs1 | inactive | – |
| CCOC(=O)c1ccc(NC(=O)CCS(=O)(=O)c2cccc3nonc23)cc1 | inconclusive: 29.1 µM [activator, single point] | – |
| Cc1ccc(C(OCC(O)CNCc2ccc(F)cc2)c2ccccc2)cc1 (stereo unspecified) | active: 5.17 µM | – |
| CCOC(=O)C1(Cc2cccc(OC)c2)CCN(Cc2cccc(OC)c2OC)CC1 | inconclusive: 23.1 µM [activator, partial curve, poor fit] | – |
| COc1ccc(C(CNC(=O)COc2ccc(F)cc2Cl)N2CCCCC2)cc1 (stereo unspecified) | inactive | – |
| COc1ccc(-c2nc3cc(C)ccn3c2NC2CCCCC2)cc1SC1CCCCC1 | inconclusive: 16.4 µM [activator, single point] | – |
| CCN1CCOC(CC(=O)Nc2ccc([N+](=O)[O-])cc2)C1=O (stereo unspecified) | inactive | – |
| Cc1cc(Br)ccc1NC(=O)C(C)c1ccc([N+](=O)[O-])cc1 (stereo unspecified) | inactive | – |
| CCCN1CCc2c(sc(NC(=O)c3ccc(S(=O)(=O)N(C)c4ccccc4)cc3)c2C(N)=O)C1 | inconclusive: 29.1 µM [activator, single point] | – |
| COc1nc(C)ccc1-c1noc(-c2cccnc2)n1 | inconclusive: 1.84 µM [activator, partial curve, poor fit] | – |

| Compound | Potency | re-replication activation |
| --- | --- | --- |
| Cc1ccccc1CN1CCC(n2nccc2NC(=O)CCOc2ccccc2)CC1 | inconclusive: 29.1 µM [activator, single point] | – |
| COCCOC(=O)C1=C(C)NC(C)=C(C(=O)OCCOC)C1/C=C/c1ccccc1OC | inactive | – |
| O=C(NCCCN1CCCC1=O)C1CCN(S(=O)(=O)c2ccccc2)CC1 | inactive | – |
| O=C(Nc1cccc(Cl)c1N1CCCC1)c1ccc(Br)o1 | inactive | – |
| Cc1ccc2nc(-c3ccncc3)cc(-c3ccccc3)c2c1 | inconclusive: 22.4 µM [activator, single point] | – |
| CCCCCCSc1ccc(-c2nc3ccc(C)cn3c2NC2CCCCC2)cc1 | inconclusive: 29.1 µM [activator, single point] | – |
| CN(C)c1cccc(C(=O)N2CCCC(CCC(=O)NCc3ccccc3F)C2)c1 (stereo unspecified) | inconclusive: 29.1 µM [activator, single point] | – |
| N#C/C(=C\c1ccc(-c2ccccc2[N+](=O)[O-])o1)C(=O)N1CCOCC1 | inconclusive: 29.1 µM [activator, single point] | – |
| Cc1ccc(OCC(=O)Nc2ccc3c(c2)nc(CCN2CCC(C)CC2)n3C)cc1 | inconclusive: 29.1 µM [activator, single point] | – |
| COc1ccc(N(C)C2=NS(=O)(=O)c3ccccc32)cc1 | active: 2.59 µM | – |
| CC(C)Cn1c(N)c(C(=O)COC(=O)c2nccnc2N)c(=O)n(C)c1=O | inconclusive: 29.1 µM [activator, single point] | – |
| COc1ccc([N+](=O)[O-])cc1NC(=O)CSc1ccc2ccccc2c1 | inconclusive: 18.4 µM [activator, single point] | – |
| COc1ccc(-c2cc(C(F)F)nn2-c2ccc(S(N)(=O)=O)cc2)cc1F | inactive | – |
| Cn1c(CN2CCN(c3ccccc3NS(C)(=O)=O)CC2)nc2ccccc21 | inconclusive: 3.66 µM [activator, single point] | – |
| CCN1C(=O)[C@H]2[C@@H](c3ccc(-c4cccc(Cl)c4)c(OC)c3)N[C@@](CC(C)C)(C(=O)OC)[C@H]2C1=O | inconclusive: 25.9 µM [activator, single point] | – |
| Cc1ccc2nc(SCC(=O)Nc3ccc4sc(C)nc4c3)c(C#N)cc2c1 | inconclusive: 13 µM [activator, partial curve] | – |
| Cc1cc(CNCCN(C)C)c(C)n1-c1cc(S(=O)(=O)N2CCOCC2)ccc1N1CCCC1 | inconclusive: 29.1 µM [activator, single point] | – |
| Cc1cc(C)cc(SCc2noc(C(=O)NCCN(C)C)c2C(=O)NCCN(C)C)c1 | inconclusive: 29.1 µM [activator, single point] | – |
| CC(C)COc1ccc(C(=O)OCCN2CCCCC2)cc1 | inactive | – |
| CCCc1cc(=O)[nH]c(SCC(=O)N2CCC(C)CC2)n1 | inconclusive: 16.4 µM [activator, single point] | – |
| CCOC(=O)c1cnn(-c2nc3c(C)cccc3s2)c1C(F)(F)F | inactive | – |
| CCOC(=O)c1csc(NC(=O)c2cc(OC)c(OC)c(OC)c2)n1 | active: 0.231 µM | – |
| CN1CC=C2C(C#N)=C(N)C(C#N)(C#N)C(c3cccc(Cl)c3Cl)C2C1 (stereo unspecified) | inactive | – |
| Cc1ccc(-c2cc(C(F)F)nc3sc4c(=O)[nH]cnc4c23)cc1 | inconclusive: 23.1 µM [activator, single point] | – |

4 compounds picked at random from those above:

| Compound | Potency | re-replication activation |
| --- | --- | --- |
| N#C/C(=C\c1ccc(-c2ccccc2[N+](=O)[O-])o1)C(=O)N1CCOCC1 | inconclusive: 29.1 µM [activator, single point] | – |
| Cc1ccc(-c2cc(C(F)F)nc3sc4c(=O)[nH]cnc4c23)cc1 | inconclusive: 23.1 µM [activator, single point] | – |
| Cc1cc(C)cc(SCc2noc(C(=O)NCCN(C)C)c2C(=O)NCCN(C)C)c1 | inconclusive: 29.1 µM [activator, single point] | – |
| CN1CC=C2C(C#N)=C(N)C(C#N)(C#N)C(c3cccc(Cl)c3Cl)C2C1 (stereo unspecified) | inactive | – |

Later entries

| Compound | Potency | re-replication activation |
| --- | --- | --- |
| CCN(c1ccccc1)S(=O)(=O)c1cc(C(=O)Oc2ccc3c(C)cc(=O)oc3c2)ccc1C | inconclusive: 0.82 µM [activator, partial curve, poor fit] | – |
| CSc1nc2ccccc2cc1/C=C(\C#N)c1ccc(Cl)cc1Cl | inconclusive: 29.1 µM [activator, single point] | – |
| Cc1c(C)n(Cc2ccc(F)cc2)c2ccc(C(=O)NCCN3CCOCC3)cc12 | inactive | – |
| CCOc1ccc([N+](=O)[O-])cc1CNC1CCCCCCC1 | inactive | – |
| O=C(c1ccccc1)c1c[nH]c(C(=O)C(Cl)(Cl)Cl)c1 | inactive | – |
| Cc1cc(NCCCCCCCNc2cc(C)nc3cc([N+](=O)[O-])ccc23)c2ccc([N+](=O)[O-])cc2n1 | inconclusive: 29.1 µM [activator, single point] | – |
| O=C(NC(=S)N1CCN(c2ccccn2)CC1)c1ccccc1 | inconclusive: 0.92 µM [activator, partial curve, poor fit] | – |
| COc1cc2c3c(c1)C(C)=CC(C)(C)N3C(=O)C2=O | active: 10.3 µM | – |
| Cc1c(C(=O)Nc2nnc(C(F)(F)F)s2)oc2ccccc12 | inactive | – |
| CCN(Cc1ccc(C#CCCO)cc1)CC1CCCN(CCc2cccc(OC)c2)C1 (stereo unspecified) | inconclusive: 29.1 µM [activator, single point] | – |
| COc1cc(C(=O)Nc2ccc3nc(N4CCN(C)CC4)cc(C)c3c2)cc(OC)c1OC | inconclusive: 29.1 µM [activator, single point] | – |
| O=C(Nc1ccc(S(=O)(=O)N2CCOCC2)cc1)C1CC1 | inactive | – |
| Cc1ccccc1-c1cc(-c2ccccc2O)n[nH]1 | inconclusive: 18.4 µM [activator, single point] | – |
| O=C(O)[C@H](Cc1ccccc1)Nc1ccc([N+](=O)[O-])cn1 | – | inconclusive: -46.6% [activator] |
| CC(=O)N(C)c1nnc(-c2cnccn2)s1 | inconclusive: 4.11 µM [activator, partial curve, poor fit] | – |
| Cc1ccc(-n2cc(CNCCc3ncc(C)[nH]3)c(-c3ccc(F)cc3)n2)cc1 | inconclusive: 29.1 µM [activator, single point] | – |
| Cc1ccc(-c2ccccc2NC(=O)CS(=O)CC(=O)Nc2ccc(C)c(Cl)c2)o1 (stereo unspecified) | inconclusive: 29.1 µM [activator, single point] | – |
| Cc1ccc(C(=O)NC(=S)Nc2cc(-c3nc4ccccc4s3)ccc2C)cc1 | inactive | – |
| COC(=O)c1ccccc1NC(=O)c1cccc(COc2ccccc2Cl)c1 | inconclusive: 29.1 µM [activator, single point] | – |
| CC(C)Oc1ccccc1NC(=O)CSc1nccn1C | inconclusive: 0.708 µM [activator, partial curve, poor fit] | – |
| CC(C)c1ccc(C(=O)NC(=S)NCc2cccnc2)cc1 | inactive | – |
| NS(=O)(=O)c1ccc(CCNC(=O)COC(=O)CC(c2ccccc2)c2ccccc2)cc1 | inactive | – |
| COc1ccc(N(Cc2ccccc2)C(=O)CSc2nnc(Cn3nnc4ccccc43)o2)cc1 | inconclusive: 3.66 µM [activator, partial curve, poor fit] | – |
